In the supplement of paper PMC10735217:
This is one part of the list. Repeats in this data set agree poorly, so a single value says little.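 Human kidney-derived cells stably carry a construct in which eight TEAD-binding elements drive luciferase, measured by luminescence in a drug-repurposing library screen. A hit is any compound whose signal exceeds the plate mean by more than five robust Z scores.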

Test system: HEK293A TEAD-LUC reporter
Assay: TEAD-luciferase reporter activity (YAP activation), robust Z score vs plate; higher = stronger YAP/TEAD activation
Settings: 24 h

Compound | TEAD-luciferase reporter activity (compound concentration: 200 nM) | TEAD-luciferase reporter activity (compound concentration: 2 uM) | TEAD-luciferase reporter activity (compound concentration: 10 uM)
CC(C)(C)CC(C)(C)c1ccc(OCCOCCOCCOCCOCCOCCOCCO)cc1 | inactive: -0.193 | inactive: 0.554 | inactive: 1.13
CCN[C@H]1CN(CCCOC)S(=O)(=O)c2sc(S(N)(=O)=O)cc21 [brinzolamide] | – | inactive: 0.951 | –
CCN[C@H]1CN(CCCOC)S(=O)(=O)c2sc(S(N)(=O)=O)cc21 [Brinzolamide] | inactive: -1.26 | – | inactive: -0.904
COC(=O)c1cc(OC)c2c(c1-c1c(C(=O)OC)cc(OC)c3c1OCO3)OCO2 [Bifendate] | inactive: 0.701 | inactive: 0.72 | inactive: 0.774
O=C(c1cc(B(O)O)cc([N+](=O)[O-])c1)N1CCOCC1 | inactive: -0.618 | inactive: -0.81 | inactive: -0.308
CCOc1cnc(NCc2cc3c(C)nn(C)c3nc2N2CCOCC2)nc1 | inactive: 1.71 | inactive: -1.12 | active: 5.02
CCC(c1ccccc1)c1c(O)c2ccccc2oc1=O (centres undefined) [Phenprocoumon(Marcumar)] | inactive: -0.904 | inactive: -1.47 | inactive: -0.626
CC(C)(CCCCOc1cc(-c2ccccc2)cc(-c2ccccc2)n1)c1nn[nH]n1 | inactive: 0.0893 | inactive: -0.351 | inactive: 1.66
CC(=O)N(C)Cc1ccc2c(c1)OCO2 | inactive: -1.01 | inactive: -0.59 | inactive: 1.8
O=C(O)c1ccc(CN2C[C@@H]3C[C@H]2CN3Cc2ccc(Oc3ccc(-c4ncco4)cc3)cc2)cc1 [Acebilustat] | inactive: -0.768 | inactive: -0.0445 | inactive: -0.0236
O=C(O)CCCN1CCC[C@H]1COc1ccc(Oc2ccc(Cl)cc2)cc1 | inactive: 0.409 | inactive: -1.91 | inactive: 3.19
CCCCCCCCCN1C[C@H](O)[C@@H](O)[C@H](O)[C@H]1CO | inactive: -1.28 | inactive: 0.97 | inactive: -1.01
CCCCCN(CCCCC)C(=O)C(CCC(=O)O)NC(=O)c1ccc(Cl)c(Cl)c1 (centres undefined) [Lorglumide] | inactive: -0.0245 | – | inactive: 1.71
CCCCCN(CCCCC)C(=O)C(CCC(=O)O)NC(=O)c1ccc(Cl)c(Cl)c1 (centres undefined) [lorglumide] | – | inactive: 3.02 | –
CC(=O)[O-] [calcium acetate] | inactive: 0.391 | inactive: -0.24 | inactive: 1.24
CC(=O)[O-] [Zinc acetate] | – | inactive: -1.45 | –
CCC(=O)OC1C(OC2C(C)C(OC3CC(C)(OC)C(O)C(C)O3)C(C)C(=O)OC(CC)C(C)(O)C(O)C(C)C(=O)C(C)CC2(C)O)OC(C)CC1N(C)C (centres undefined) [Erythromycin stinoprate] | active: 6.17 | inactive: 0.686 | inactive: -0.0961
CC(=O)Oc1ccc(-c2ccc(F)cc2)cc1C(=O)O | inactive: -0.245 | inactive: -0.0602 | inactive: -1.02

Look-ups from the entries so far.
Value for CC(=O)N(C)Cc1ccc2c(c1)OCO2 under TEAD-luciferase reporter activity (compound concentration: 10 uM): inactive: 1.8
Value for CC(C)(C)CC(C)(C)c1ccc(OCCOCCOCCOCCOCCOCCOCCO)cc1 under TEAD-luciferase reporter activity (compound concentration: 200 nM): inactive: -0.193

(listing goes on)

Compound | TEAD-luciferase reporter activity (compound concentration: 200 nM) | TEAD-luciferase reporter activity (compound concentration: 2 uM) | TEAD-luciferase reporter activity (compound concentration: 10 uM)
COc1cc2c(Nc3ccc(Br)cc3F)ncnc2cc1OCC1CCN(C)CC1 [vandetanib] | inactive: -0.844 | inactive: -1.25 | inactive: 0.0671
COc1cccc(C(=O)N2CCC3(CC2)Cc2ccccc2NC3=O)c1 | inactive: -1.12 | – | inactive: 3.13
O=c1cc(OCCCn2c3ccccc3c3ccccc32)ccn1Cc1ccccc1Cl | inactive: -0.262 | inactive: 0.354 | inactive: -0.573
Cc1nc2c(s1)C(=O)C=C(NCCN(C)C)C2=O | inactive: 0.405 | inactive: -0.395 | inactive: -0.749
Cc1cc(SCc2nn(-c3ccc(C(F)(F)F)cc3)nc2C)ccc1OCC(=O)O [not Seladelpar] | inactive: -2.33 | inactive: 1.37 | inactive: -1
CCCCC/C=C\C/C=C\CCCCCCCC(=O)O | inactive: -0.436 | inactive: -1.33 | inactive: 0.352
CCCOC | inactive: 0.563 | inactive: 1.84 | inactive: -0.244
CC(C)(O)c1ccccc1-c1ccccc1Cl | inactive: -0.162 | inactive: -0.223 | inactive: -1.55
O=c1[nH]cnc2c1ncn2[C@H]1CC[C@@H](CO)O1 | – | inactive: -2.13 | –
O=c1[nH]cnc2c1ncn2[C@H]1CC[C@@H](CO)O1 [Didanosine] | inactive: -0.248 | inactive: 0.0415 | inactive: -0.223
CCCN(CCC)C(=O)C(Cc1ccc(OCCCN2CCN(C)CC2)cc1)NC(=O)c1cccc(Cl)c1 (centres undefined) | inactive: 0.101 | inactive: -0.667 | inactive: -0.284
Cc1noc(NS(=O)(=O)c2ccc(N)cc2)c1C [Sulfafurazole] | – | inactive: -1.89 | –
Cc1noc(NS(=O)(=O)c2ccc(N)cc2)c1C [Sulfisoxazole127-69-5] | inactive: -1.71 | – | inactive: 1.56
Nc1ncnc2c1ncn2[C@@H]1O[C@@H]2CO[P@@](=O)([S-])O[C@@H]3[C@H](O)[C@@H](CO[P@@](=O)([S-])O[C@H]2[C@H]1O)O[C@H]3n1cnc2c(N)ncnc21 | inactive: 0.605 | inactive: -0.254 | inactive: 1.47
CC1=C(C=O)C(C)(C)CC=C1 [Safranal] | inactive: -1.5 | inactive: 2.37 | inactive: 0.835
CC[C@]12C=CCN3CC[C@@]4(c5cc([C@@]6(C(=O)OC)C[C@@H]7C[C@@H](C(C)(F)F)CN(Cc8c6[nH]c6ccccc86)C7)c(OC)cc5N(C)[C@H]4[C@@](O)(C(=O)OC)[C@@H]1OC(C)=O)[C@@H]32 [Vinflunine (Tartrate)] | inactive: -1.24 | inactive: 4.25 | inactive: 1.05
Cc1cc(F)ccc1-c1nc(NC(CO)CO)nc2c1ccc(=O)n2-c1c(F)cccc1F [Dilmapimod] | inactive: 0.0445 | inactive: -1.78 | inactive: -1.52
C[C@H]1O[C@H](O[C@H]2[C@H](O)[C@@H](O)[C@@H](O[C@H]3[C@H](O)[C@@H](O)[C@H](O)O[C@@H]3CO)O[C@@H]2CO)[C@H](O)[C@@H](O)[C@@H]1N[C@H]1C=C(CO)[C@@H](O)[C@H](O)[C@H]1O [Acarbose] | inactive: -1.45 | inactive: -0.343 | inactive: -0.996
